Assay: Blood glucose of STZ-treated diabetic BN rats
Assay type: in vivo, Brown Norway (BN) rats
Details: STZ-treated BN rats (>500 mg/dl), Mem 10 mg/kg/day or Bri 1 mg/kg/day for 4 wks

SMILES	effect on blood glucose	effect on blood glucose (listed as Mem)	effect on blood glucose (listed as Bri)
CC12CC3CC(C)(C1)CC(N)(C3)C2 [Memantine, memantine]	did not affect	did not have any effect	
Brc1c(NC2=NCCN2)ccc2nccnc12 [Brimonidine, brimonidine]	did not affect		did not have any effect
